The target in one test is myc-PIAS1 (UniProt O75925). The test can be described thus: co-IP; 293T cells cotransfected with myc-PIAS1 and HA-IE1 or HA-UL53; lysates at 48 h in CoIP buffer (50 mM Tris-Cl pH 7.4, 50 mM NaF, 5 mM sodium phosphate, 0.1% Triton X-100); immunoprecipitated with anti-myc at 4°C, blotted with anti-HA.
Test [1] addresses T1, GST-IE1 (human cytomegalovirus (Towne cDNA)) (UniProt P03169).
T1 sequence: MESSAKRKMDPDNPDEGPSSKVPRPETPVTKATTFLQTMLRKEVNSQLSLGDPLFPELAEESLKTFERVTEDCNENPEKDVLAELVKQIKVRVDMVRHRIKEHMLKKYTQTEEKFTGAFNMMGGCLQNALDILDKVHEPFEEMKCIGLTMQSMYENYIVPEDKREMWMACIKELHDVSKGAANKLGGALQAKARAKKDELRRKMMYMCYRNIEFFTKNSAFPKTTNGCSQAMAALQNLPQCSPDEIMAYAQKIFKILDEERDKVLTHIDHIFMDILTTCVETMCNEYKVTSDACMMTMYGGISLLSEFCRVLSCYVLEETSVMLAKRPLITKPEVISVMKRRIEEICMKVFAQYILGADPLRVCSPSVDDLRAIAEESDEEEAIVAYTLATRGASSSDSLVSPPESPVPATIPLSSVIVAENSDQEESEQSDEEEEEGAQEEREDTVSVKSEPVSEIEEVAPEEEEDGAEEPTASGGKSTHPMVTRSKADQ
The test can be described thus: pull-down; 5 µg GST-IE1 purified from bacteria immobilised on glutathione-Sepharose beads, incubated with in vitro-translated [35S]-methionine-labeled PIAS1; SDS-PAGE and autoradiography; only the target purified.

Chains of the proteins cited; added tags and fusions are not shown.
UniProt O75925: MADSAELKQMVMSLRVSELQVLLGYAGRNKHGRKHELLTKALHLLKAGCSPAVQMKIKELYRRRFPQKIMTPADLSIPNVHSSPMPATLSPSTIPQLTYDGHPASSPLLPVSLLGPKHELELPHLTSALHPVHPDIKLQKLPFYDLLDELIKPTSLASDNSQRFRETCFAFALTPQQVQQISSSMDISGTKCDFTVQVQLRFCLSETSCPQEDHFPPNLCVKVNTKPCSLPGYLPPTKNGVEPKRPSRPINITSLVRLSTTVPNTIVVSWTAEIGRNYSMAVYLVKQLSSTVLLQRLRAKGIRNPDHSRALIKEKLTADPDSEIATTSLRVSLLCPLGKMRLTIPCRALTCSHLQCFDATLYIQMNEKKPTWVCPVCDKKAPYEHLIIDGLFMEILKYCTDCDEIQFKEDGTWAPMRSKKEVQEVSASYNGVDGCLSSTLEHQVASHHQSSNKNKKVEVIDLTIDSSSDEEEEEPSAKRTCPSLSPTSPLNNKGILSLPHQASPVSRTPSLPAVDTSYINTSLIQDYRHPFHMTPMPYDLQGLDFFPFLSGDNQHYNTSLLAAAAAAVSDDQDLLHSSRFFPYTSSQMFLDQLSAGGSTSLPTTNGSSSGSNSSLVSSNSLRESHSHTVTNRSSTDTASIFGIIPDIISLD
UniProt P16794: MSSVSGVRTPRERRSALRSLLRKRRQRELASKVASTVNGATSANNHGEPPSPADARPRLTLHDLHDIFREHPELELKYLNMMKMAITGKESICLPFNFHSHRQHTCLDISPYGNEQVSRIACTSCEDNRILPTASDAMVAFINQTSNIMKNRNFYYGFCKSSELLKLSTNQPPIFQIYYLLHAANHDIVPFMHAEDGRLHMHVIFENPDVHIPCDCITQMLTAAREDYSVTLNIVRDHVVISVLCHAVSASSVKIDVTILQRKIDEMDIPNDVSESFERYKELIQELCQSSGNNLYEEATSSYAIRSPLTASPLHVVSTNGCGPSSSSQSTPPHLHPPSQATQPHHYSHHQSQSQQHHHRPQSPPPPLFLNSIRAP

Results are given in words; binding and its absence hold for the method and conditions named. Binding seen in cells or lysates may run through a third protein. Some entries that bind do so weakly or less than the wild type. Sequences can lack the tags named with a protein.

In the case of HA-UL53 (from UniProt P16794 1-376), the binding entry with myc-PIAS1 is listed as “no binding”.

Turning to “in vitro-translated [35S]-methionine-labeled PIAS1 (from UniProt O75925 1-651) (enzyme)”, the binding entry in test [1] is reported as “binds”.

B1: HA-IE1 (protein, UniProt P03169 1-491)
chain: T1 sequence
For B1, in the test with myc-PIAS1, the binding entry is given as “binds”.

The record behind these values is PMC4106884.
